Data as given in PubChem BioAssay AID652243 (Drosophila RNAi Screening Center, 2013)

- Test: 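Fly genes required for human androgen receptor driven transcription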 (primary screen)
- Cell system: Drosophila S2R+ cells
- Reagents: long dsRNA against Drosophila genes
- Duration: 72 h (48 h, then 24 h hormone)
- Treatment: synthetic androgen R1881 at 10 nM for 24 h
- Detection: 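Per-well raw luminescence of the androgen-driven firefly reporter and of the Renilla control, two replicates each, without normalisation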
- Reading the numbers: firefly reporter light: higher = more light from androgen-responsive reporter; Renilla control light: higher = more constitutive control signal (cell number, transfection)
- Active means: 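Across duplicate plates, a knock-down whose log firefly/Renilla ratio shifted a set fold down or up from the GFP/LacZ control mean was a hit; the downward cut appears as both 1.5 and 3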
- Meaning of the calls: active = hit: reporter lowered or raised; inactive = no hit
In all, the deposit lists about 24,000 reagents; below is a random part of those with a known target gene and a result. Of all reagents, 246 (1%) were called active. 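Plates not normalised; calls are printed but the firefly/Renilla ratio behind them is not deposited; fold cut for lowering reported inconsistently.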 Raw values are not corrected between plates. The numbers tell different reagents against one gene apart. A plus sign joins genes that one reagent is predicted to hit. No sequences are given here. The record does not give: the amount of reagent.

target | reagent no. | firefly reporter light, replicate 1 | firefly reporter light, replicate 2 | Renilla control light, replicate 1 | Renilla control light, replicate 2 | call
CG9109 | 1 | 1.05e6 | 1.18e6 | 2.10e6 | 2.05e6 | inactive
CG9109 | 2 | 3.15e5 | 2.74e5 | 5.67e5 | 6.30e5 | inactive
p130CAS | 1 | 1.50e5 | 1.74e5 | 2.29e5 | 2.81e5 | inactive
p130CAS | 2 | 1.59e6 | 1.61e6 | 2.47e6 | 1.95e6 | inactive
p130CAS | 3 | 2.63e5 | 2.84e5 | 6.45e5 | 6.76e5 | inactive
Cyp301a1 (Cytochrome P450 301a1) | 1 | 4.30e5 | 2.50e5 | 1.34e6 | 1.45e6 | inactive
CycC (Cyclin C) | 1 | 83053 | 73421 | 6.70e5 | 8.04e5 | inactive
CycC (Cyclin C) | 2 | – | – | – | – | inactive
Cpr72Ea (Cuticular protein 72Ea) | 1 | 42070 | 31713 | 3.47e5 | 2.61e5 | inactive
kel (kelch) | 1 | 1.96e5 | 3.39e5 | 1.93e6 | 2.59e6 | inactive
Blos4 | 1 | 2.75e5 | 1.99e5 | 2.98e6 | 2.46e6 | inactive
Blos4 | 2 | 1.57e5 | 2.57e5 | 2.66e5 | 8.25e5 | inactive
Edg84A (Ecdysone-dependent gene 84A) | 1 | 1.08e5 | 1.42e5 | 2.32e6 | 2.47e6 | inactive
CG14111 | 1 | 1.78e5 | 2.10e5 | 1.31e6 | 1.74e6 | inactive
CG14111 | 2 | 4.69e5 | 4.11e5 | 6.28e5 | 4.65e5 | inactive
Dnaaf5 (Dynein axonemal assembly factor 5) | 1 | 1.41e5 | 1.73e5 | 1.83e5 | 2.58e5 | inactive
Tsen34 + Trl | 1 | 2.44e5 | 2.60e5 | 2.45e6 | 1.85e6 | inactive
CG1801 | 1 | 1.08e5 | 37714 | 4.90e5 | 2.55e5 | inactive
CG31556 (retired record) | 1 | 3.56e5 | 4.02e5 | 1.05e6 | 2.39e6 | inactive
CG31556 (retired record) | 2 | 5.85e5 | 5.81e5 | 2.74e6 | 2.01e6 | inactive
CG31556 (retired record) | 3 | 4.71e5 | 4.25e5 | 6.40e5 | 6.94e5 | inactive
sut1 (sugar transporter 1) | 1 | 1.18e6 | 6.49e5 | 1.35e6 | 1.02e6 | inactive
Ucp4C (Uncoupling protein 4C) | 1 | 2.23e5 | 2.87e5 | 1.57e6 | 2.30e6 | inactive
Ucp4C (Uncoupling protein 4C) | 2 | 4.25e5 | 4.11e5 | 2.98e5 | 6.32e5 | inactive

Not a retest: an excerpt of the list.
target | reagent no. | firefly reporter light, replicate 1 | firefly reporter light, replicate 2 | Renilla control light, replicate 1 | Renilla control light, replicate 2 | call
Cyp301a1 (Cytochrome P450 301a1) | 1 | 4.30e5 | 2.50e5 | 1.34e6 | 1.45e6 | inactive
CycC (Cyclin C) | 1 | 83053 | 73421 | 6.70e5 | 8.04e5 | inactive
CycC (Cyclin C) | 2 | – | – | – | – | inactive
Cpr72Ea (Cuticular protein 72Ea) | 1 | 42070 | 31713 | 3.47e5 | 2.61e5 | inactive
kel (kelch) | 1 | 1.96e5 | 3.39e5 | 1.93e6 | 2.59e6 | inactive
Blos4 | 1 | 2.75e5 | 1.99e5 | 2.98e6 | 2.46e6 | inactive
Blos4 | 2 | 1.57e5 | 2.57e5 | 2.66e5 | 8.25e5 | inactive
Edg84A (Ecdysone-dependent gene 84A) | 1 | 1.08e5 | 1.42e5 | 2.32e6 | 2.47e6 | inactive
CG14111 | 1 | 1.78e5 | 2.10e5 | 1.31e6 | 1.74e6 | inactive

The results go on.
target | reagent no. | firefly reporter light, replicate 1 | firefly reporter light, replicate 2 | Renilla control light, replicate 1 | Renilla control light, replicate 2 | call
pes (peste) | 1 | 2.12e5 | 1.54e5 | 1.59e6 | 1.46e6 | inactive
pes (peste) | 2 | 3.03e5 | 3.32e5 | 6.45e5 | 6.78e5 | inactive
CG13614 | 1 | 1.85e5 | 1.55e5 | 1.98e6 | 2.12e6 | inactive
Pcif1 (Phosphorylated CTD-interacting factor 1) | 1 | 40221 | 57421 | 5.28e5 | 4.40e5 | inactive
Pcif1 (Phosphorylated CTD-interacting factor 1) | 2 | 6.47e5 | 7.92e5 | 1.01e6 | 8.34e5 | inactive
Fad2 | 1 | 52280 | 60467 | 1.05e6 | 9.55e5 | inactive
Fad2 | 2 | 6.23e5 | 4.51e5 | 6.90e5 | 5.74e5 | inactive
CG8366 | 1 | 33395 | 50162 | 9.31e5 | 9.31e5 | inactive
CG17906 + alien | 1 | 8.58e5 | 7.76e5 | 1.07e6 | 9.45e5 | inactive
CG18180 | 1 | 6.35e5 | 1.75e5 | 8.11e5 | 3.82e5 | inactive
CG18180 | 2 | 8.23e5 | 5.66e5 | 1.59e6 | 1.55e6 | inactive
Miga (Mitoguardin) | 1 | 2.36e5 | 2.30e5 | 1.86e6 | 2.73e6 | inactive
ppk (pickpocket) | 1 | 74944 | 87230 | 1.23e6 | 1.26e6 | inactive
ppk (pickpocket) | 2 | 4.05e5 | 5.38e5 | 5.92e5 | 5.29e5 | inactive
Or82a (Odorant receptor 82a) | 1 | 3.39e5 | 3.43e5 | 7.67e5 | 6.36e5 | inactive
CG14856 | 1 | 2.32e5 | 2.35e5 | 3.08e6 | 3.79e6 | inactive
Trm7-32 (tRNA methyltransferase 7-32) | 1 | 62487 | 1.47e5 | 6.20e5 | 7.22e5 | inactive
yellow-e2 | 1 | 88477 | 1.52e5 | 1.03e6 | 1.70e6 | inactive
eIF1A (eukaryotic translation initiation factor 1A) | 1 | 1.75e5 | 2.30e5 | 1.01e6 | 1.12e6 | inactive
Uba4 (Ubiquitin-like activating enzyme 4) | 1 | 1.93e5 | 1.79e5 | 1.46e6 | 1.61e6 | inactive
Uba4 (Ubiquitin-like activating enzyme 4) | 2 | 7.61e5 | 6.33e5 | 2.36e6 | 1.36e6 | inactive
CG34229 | 1 | 2.70e5 | 2.48e5 | 1.83e6 | 2.01e6 | inactive
CycB3 (Cyclin B3) | 1 | 1.46e5 | 1.53e5 | 1.74e6 | 1.38e6 | inactive
PIG-C (Phosphatidylinositol glycan anchor biosynthesis class C) | 1 | 3.02e5 | 4.31e5 | 9.74e5 | 1.43e6 | inactive
hpRNA:CR18854 + IP3K1 | 1 | 7.61e5 | 9.61e5 | 1.43e6 | 1.81e6 | inactive
NiPp1 (Nuclear inhibitor of Protein phosphatase 1) | 1 | 5.35e5 | 4.79e5 | 5.24e5 | 3.90e5 | inactive
NiPp1 (Nuclear inhibitor of Protein phosphatase 1) | 2 | – | – | – | – | inactive
CG13314 | 1 | 1.72e5 | 1.18e5 | 1.62e6 | 1.08e6 | inactive
CG34027 | 1 | 7.49e5 | 6.23e5 | 1.90e6 | 1.76e6 | inactive
CG30486 | 1 | 3.50e5 | 2.68e5 | 1.19e6 | 1.78e6 | inactive
CG8272 | 1 | 6.51e5 | 3.69e5 | 7.53e5 | 7.20e5 | inactive
alpha-Est7 (alpha-Esterase-7) | 1 | 5.13e5 | 4.71e5 | 2.72e6 | 3.61e6 | inactive
alpha-Est7 (alpha-Esterase-7) | 2 | 1.76e5 | 2.49e5 | 5.63e5 | 9.66e5 | inactive
CG34227 | 1 | 1.73e5 | 1.51e5 | 1.03e6 | 9.60e5 | inactive
CG34227 | 2 | 2.86e5 | 2.23e5 | 1.79e6 | 1.72e6 | inactive
